This note sets out measurements from patent US20250297152A1, “FLUORINATED SUBSTITUTED OLEFIN REFRIGERANTS AND METHODS OF COOLING ELECTRONICS” (Honeywell International Inc., priority 2024, published 2025).

The data set is described as follows: ODP.

For `F/C=C\C(F)(C(F)(F)F)C(F)(F)C(F)(F)F` (stereo not drawn) [cis-secBuFO, cis-1,3,4,4,5,5,5-heptafluoro-3-(trifluoromethyl)pent-1-ene], the ODP was 0 (Table 3) and 0 (Table E1).
As for `F/C=C\C(C(F)(F)F)(C(F)(F)F)C(F)(F)F` [cis-tBuFO, cis-1,4,4,4-tetrafluoro-3,3-bis(trifluoromethyl)but-1-ene], the ODP (Table 3) is 0 and the ODP (Table E1) was determined as 0.
As for `F/C=C/C(F)(C(F)(F)F)C(F)(F)C(F)(F)F` (stereo not drawn) [trans-secBuFO, trans-1,3,4,4,5,5,5-heptafluoro-3-(trifluoromethyl)pent-1-ene], the ODP is, setting by setting: (Table 3) 0; (Table E1) 0.
Regarding `F/C=C/C(C(F)(F)F)(C(F)(F)F)C(F)(F)F` [trans-tBuFO, trans-1,4,4,4-tetrafluoro-3,3-bis(trifluoromethyl)but-1-ene], the ODP by setting is: (Table 3) 0; (Table E1) 0.
